# Laboratory results from paper PMC5895659, “Mechanistic and Structural Insights Into the Unique TetR-Dependent Regulation of a Drug Efflux Pump in Mycobacterium abscessus” (Frontiers in Microbiology, 2018).
# Biological target: T1, MAB_4384 (TetR regulator) (UniProt B1MJU8)
# T1 sequence (looked up, limits assumed): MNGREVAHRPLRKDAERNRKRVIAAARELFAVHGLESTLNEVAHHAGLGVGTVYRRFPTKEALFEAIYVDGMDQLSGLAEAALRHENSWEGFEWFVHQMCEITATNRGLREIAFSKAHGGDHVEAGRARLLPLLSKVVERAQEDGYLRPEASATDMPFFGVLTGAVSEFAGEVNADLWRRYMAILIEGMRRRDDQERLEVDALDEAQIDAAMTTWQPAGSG
# Test: EMSA
# Settings: EMSA: 280 nM fluorescein probe, 1X TAE, 1 h, room temperature, 6% native PAGE in 1X TAE, recombinant protein
# [1] = similar to Probe 6, label: 5' fluorescein
sequence,measurement,setting,value
CACTTCGCCATAAGCAGATTGACTCTATCTGCTTTTACCCATAGA (double strand) [Probe 8 (di-nucleotide substitutions)],binding result,[1],binds more weakly
CACTTCGCCATAAGTGGATATGCATGACTCTCTGAAGATCCACTTTTACCCATAGA (double strand) [Probe 5 (spacer increased by 10 nt)],binding result,label: 5' fluorescein,binds more weakly
CACTTCGCCATAAGTGGATCATCCACTTTTACCCATAGA (double strand) [Probe 4 (repeats shortened by six nt)],binding result,"severely impeded even at 3.5 uM protein, label: 5' fluorescein",binds more weakly
CACTTCGCCATAAGTGGGCTGACTCTGCCCACTTTTACCCATAGA (double strand) [Probe 7 (di-nucleotide substitutions)],binding result,[1],binds more weakly
CACTTCGCCATGGACTTCGTGACTCTATCCACTTTTACCCATAGA (double strand) [Probe 2 (only right repeat conserved)],binding result,"partial shift at 1.75 uM protein, label: 5' fluorescein",binds more weakly
CACTTCGCCATGGGTGGATTGACTCTATCCACCCTTACCCATAGA (double strand) [Probe 6 (substitutions at repeat extremities)],binding result,"pronounced shift alteration, label: 5' …",binds more weakly

# For at least one entry, the source does not settle the construct or the ends of the probe. Weaker means in comparison with the reference protein, sequence or condition of that experiment. Where a protein sequence is shown, tags need not be part of it.
